Values from PubChem BioAssay AID493246 (Drosophila RNAi Screening Center, 2011).

Purpose: 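Genes fly cells need to grow and stay alive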 (primary screen)
System: Drosophila Kc and S2R+ cells
Reagent: long dsRNA against Drosophila genes
Detection: 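Raw, unnormalised count of remaining cells in each well; per-plate z-scores of cell number underlie the calls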
Scale: Kc cell number and S2R+ cell number: higher = more cells remaining
Call rule: 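Active when the per-plate z-score of cell number is 3 or more in the direction of fewer cells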
In all, the deposit lists about 21,000 reagents; this is a random part of those that have a named target and a result. In the full data, 429 (2%) are marked active. 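Values are raw and not normalised between plates; calls rest on per-plate z-scores that were not deposited.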 Unmarked entries are inactive. Reagents against one gene are numbered here. The record does not give: the amount of reagent, the time to read-out.

Target gene | reagent | Kc cell number, rep 1 | Kc cell number, rep 2 | S2R+ cell number, rep 1 | S2R+ cell number, rep 2
CG32507 | 1 | 1.63e6 | 1.79e6 | 1.03e6 | 1.15e6
CG1523 | 1 | 5.19e5 | – | 8.14e5 | –
CG12645 | 1 | 1.80e6 | 1.63e6 | 1.14e6 | 1.28e6
CG4496 | 1 | 1.52e6 | 1.41e6 | 1.16e6 | 1.35e6
Hem (HEM-protein) | 1 | 1.67e6 | 1.70e6 | 1.38e6 | 1.37e6
Cpsf5 (Cleavage and polyadenylation specific factor 5) | 1 | 1.30e6 | 1.49e6 | 1.24e6 | 1.06e6
Or43a (Odorant receptor 43a) | 1 | 1.59e6 | 1.70e6 | 1.24e6 | 1.35e6
Dronc (Death regulator Nedd2-like caspase) | 1 | 1.31e6 | 1.29e6 | 1.47e6 | 1.18e6
Mondo | 1 | 1.29e6 | 1.34e6 | 1.01e6 | 1.20e6
Mondo | 2 | 1.46e6 | 1.55e6 | 1.31e6 | 4.98e5
CG13843 | 1 | 1.70e6 | 1.71e6 | 9.51e5 | 1.08e6
CG3280 (retired record) | 1 | 1.39e6 | 1.43e6 | 1.19e6 | 1.30e6
AIMP1 (aaRS-interacting multifunctional protein 1) | 1 | 1.59e6 | 1.67e6 | 1.20e6 | 1.27e6
iav (inactive) | 1 | 1.62e6 | 1.59e6 | 1.01e6 | 1.18e6
unc (uncoordinated) | 1 | 1.85e6 | 1.85e6 | 1.20e6 | 1.36e6
Myt1 | 1 | 1.33e6 | 1.29e6 | 1.20e6 | 1.22e6

Continued, starting with the last 2 of the part before.
Target gene | reagent | Kc cell number, rep 1 | Kc cell number, rep 2 | S2R+ cell number, rep 1 | S2R+ cell number, rep 2
unc (uncoordinated) | 1 | 1.85e6 | 1.85e6 | 1.20e6 | 1.36e6
Myt1 | 1 | 1.33e6 | 1.29e6 | 1.20e6 | 1.22e6
fand (fandango) | 1 | 1.07e6 | 1.26e6 | 8.02e5 | 8.35e5
CG5541 | 1 | 6.13e5 | – | 8.43e5 | –
CG17977 | 1 | 1.52e6 | 1.62e6 | 1.22e6 | 1.30e6
cib (ciboulot) | 1 | 1.37e6 | 1.30e6 | 9.99e5 | 1.11e6
Sema1b (Semaphorin 1b) | 1 | 1.40e6 | 1.42e6 | 1.10e6 | 1.18e6
CG13102 | 1 | 1.64e6 | 1.63e6 | 1.05e6 | 1.17e6
CG15531 | 1 | 1.39e6 | 1.39e6 | 1.01e6 | 1.14e6
CG10208 | 1 | 1.66e6 | 1.83e6 | 1.04e6 | 1.12e6
